From PubChem BioAssay (EPA / NIEHS)
For some of these results: This list holds what a sample rich in hits left over. Records with an inconclusive call do not appear. This is a selection; strong and weak results do not stand in their true shares. Calls of active or inactive are those of the source. How the source made its calls, unless noted: active means hit-call score of the fitted dose curve at least 0.9, where 1 is the maximum; inactive means score below 0.9.

The chains behind the UniProt entries cited, without tags or fusion partners. Where a name states a change or a piece, a line headed by the entry shows the natural chain unless it says otherwise.
UniProt Q16656: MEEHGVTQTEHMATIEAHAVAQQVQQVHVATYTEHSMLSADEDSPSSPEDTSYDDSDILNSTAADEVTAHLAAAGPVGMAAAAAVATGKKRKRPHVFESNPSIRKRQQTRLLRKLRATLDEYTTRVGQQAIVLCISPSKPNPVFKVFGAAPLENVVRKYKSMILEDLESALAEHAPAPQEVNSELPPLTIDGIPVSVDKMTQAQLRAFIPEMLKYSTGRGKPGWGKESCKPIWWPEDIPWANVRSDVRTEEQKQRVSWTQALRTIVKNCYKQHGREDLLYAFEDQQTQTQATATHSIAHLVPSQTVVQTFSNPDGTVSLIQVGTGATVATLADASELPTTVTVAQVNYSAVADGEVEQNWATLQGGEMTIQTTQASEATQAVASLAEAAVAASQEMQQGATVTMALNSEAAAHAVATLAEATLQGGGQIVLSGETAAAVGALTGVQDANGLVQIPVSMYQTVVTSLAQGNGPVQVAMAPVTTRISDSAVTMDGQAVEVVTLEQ
UniProt Q60492, whole entry, looked up: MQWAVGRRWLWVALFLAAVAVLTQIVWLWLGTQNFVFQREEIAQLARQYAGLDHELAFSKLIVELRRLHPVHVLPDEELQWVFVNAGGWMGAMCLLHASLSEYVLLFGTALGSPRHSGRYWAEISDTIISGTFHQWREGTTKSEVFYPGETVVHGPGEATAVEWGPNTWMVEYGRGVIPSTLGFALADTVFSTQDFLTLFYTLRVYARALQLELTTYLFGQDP
UniProt Q5TCH4: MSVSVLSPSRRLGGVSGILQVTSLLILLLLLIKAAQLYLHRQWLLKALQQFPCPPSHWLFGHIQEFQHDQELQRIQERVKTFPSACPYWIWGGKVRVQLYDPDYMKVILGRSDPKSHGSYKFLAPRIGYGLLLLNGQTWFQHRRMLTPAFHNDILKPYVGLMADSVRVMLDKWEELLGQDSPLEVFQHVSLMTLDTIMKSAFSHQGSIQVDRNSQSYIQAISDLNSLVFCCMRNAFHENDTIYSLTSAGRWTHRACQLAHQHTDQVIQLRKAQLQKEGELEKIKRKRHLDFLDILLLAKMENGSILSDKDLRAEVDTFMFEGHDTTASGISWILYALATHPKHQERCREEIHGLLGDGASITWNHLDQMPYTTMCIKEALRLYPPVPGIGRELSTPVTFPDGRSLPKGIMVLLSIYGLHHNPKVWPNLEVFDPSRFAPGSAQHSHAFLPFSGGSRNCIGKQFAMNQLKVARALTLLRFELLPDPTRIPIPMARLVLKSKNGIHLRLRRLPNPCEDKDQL
UniProt P22680: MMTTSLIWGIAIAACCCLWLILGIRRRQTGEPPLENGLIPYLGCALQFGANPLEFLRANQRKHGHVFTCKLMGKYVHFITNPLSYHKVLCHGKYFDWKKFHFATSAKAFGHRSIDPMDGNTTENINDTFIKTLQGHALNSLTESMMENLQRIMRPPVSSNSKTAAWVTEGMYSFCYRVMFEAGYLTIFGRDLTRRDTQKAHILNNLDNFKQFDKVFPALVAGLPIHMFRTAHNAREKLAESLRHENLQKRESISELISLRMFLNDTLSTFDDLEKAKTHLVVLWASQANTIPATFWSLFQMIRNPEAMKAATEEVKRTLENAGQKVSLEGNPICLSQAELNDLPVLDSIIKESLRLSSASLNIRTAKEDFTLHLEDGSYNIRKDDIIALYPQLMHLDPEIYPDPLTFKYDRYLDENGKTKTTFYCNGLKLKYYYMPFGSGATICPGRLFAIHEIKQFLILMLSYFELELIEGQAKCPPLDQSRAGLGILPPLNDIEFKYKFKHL
UniProt Q16236, whole entry, looked up: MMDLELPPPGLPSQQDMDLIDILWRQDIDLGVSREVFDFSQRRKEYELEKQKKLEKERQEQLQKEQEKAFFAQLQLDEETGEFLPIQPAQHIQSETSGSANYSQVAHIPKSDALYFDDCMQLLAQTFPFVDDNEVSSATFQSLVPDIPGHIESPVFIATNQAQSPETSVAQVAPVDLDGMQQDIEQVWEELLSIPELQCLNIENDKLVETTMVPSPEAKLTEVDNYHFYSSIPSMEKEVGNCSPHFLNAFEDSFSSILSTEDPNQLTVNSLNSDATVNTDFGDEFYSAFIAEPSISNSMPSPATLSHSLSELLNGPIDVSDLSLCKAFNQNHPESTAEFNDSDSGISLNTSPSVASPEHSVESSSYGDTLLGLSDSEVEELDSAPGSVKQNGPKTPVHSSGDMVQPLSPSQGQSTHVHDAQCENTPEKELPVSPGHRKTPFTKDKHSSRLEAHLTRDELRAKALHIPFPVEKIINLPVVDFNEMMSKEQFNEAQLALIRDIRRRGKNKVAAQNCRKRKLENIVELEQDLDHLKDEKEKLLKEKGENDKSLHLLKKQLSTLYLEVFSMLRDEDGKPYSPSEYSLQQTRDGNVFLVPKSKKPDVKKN
UniProt P49884, whole entry, looked up: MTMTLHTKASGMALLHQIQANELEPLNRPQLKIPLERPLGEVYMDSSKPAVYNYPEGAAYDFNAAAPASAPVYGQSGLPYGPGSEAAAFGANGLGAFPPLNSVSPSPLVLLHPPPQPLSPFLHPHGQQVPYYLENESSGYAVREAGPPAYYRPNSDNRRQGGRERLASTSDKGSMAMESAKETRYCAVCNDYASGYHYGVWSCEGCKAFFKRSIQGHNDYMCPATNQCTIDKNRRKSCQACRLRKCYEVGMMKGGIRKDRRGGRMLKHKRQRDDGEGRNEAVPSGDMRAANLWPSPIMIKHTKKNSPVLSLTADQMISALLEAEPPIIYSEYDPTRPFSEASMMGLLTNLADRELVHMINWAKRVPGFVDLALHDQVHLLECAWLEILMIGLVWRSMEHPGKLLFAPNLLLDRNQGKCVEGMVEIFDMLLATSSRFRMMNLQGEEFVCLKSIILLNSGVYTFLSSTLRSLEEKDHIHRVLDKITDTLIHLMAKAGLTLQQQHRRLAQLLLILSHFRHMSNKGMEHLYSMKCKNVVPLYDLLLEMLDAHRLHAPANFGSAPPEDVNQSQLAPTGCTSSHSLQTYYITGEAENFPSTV
UniProt P03372, whole entry, looked up: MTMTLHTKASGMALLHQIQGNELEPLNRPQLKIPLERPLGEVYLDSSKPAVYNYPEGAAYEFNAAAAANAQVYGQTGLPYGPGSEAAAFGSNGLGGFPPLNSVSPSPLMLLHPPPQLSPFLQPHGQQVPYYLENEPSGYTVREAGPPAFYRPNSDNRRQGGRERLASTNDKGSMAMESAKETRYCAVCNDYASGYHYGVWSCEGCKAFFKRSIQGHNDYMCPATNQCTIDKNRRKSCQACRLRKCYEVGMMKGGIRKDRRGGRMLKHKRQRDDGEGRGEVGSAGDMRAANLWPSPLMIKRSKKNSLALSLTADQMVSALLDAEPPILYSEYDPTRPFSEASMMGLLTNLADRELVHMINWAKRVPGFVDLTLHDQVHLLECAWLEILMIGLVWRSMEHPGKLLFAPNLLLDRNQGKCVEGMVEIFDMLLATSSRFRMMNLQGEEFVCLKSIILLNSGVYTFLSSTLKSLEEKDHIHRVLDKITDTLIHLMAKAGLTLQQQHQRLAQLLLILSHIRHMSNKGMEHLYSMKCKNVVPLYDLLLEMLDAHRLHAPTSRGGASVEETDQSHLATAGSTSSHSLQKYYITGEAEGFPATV
UniProt Q96RI1: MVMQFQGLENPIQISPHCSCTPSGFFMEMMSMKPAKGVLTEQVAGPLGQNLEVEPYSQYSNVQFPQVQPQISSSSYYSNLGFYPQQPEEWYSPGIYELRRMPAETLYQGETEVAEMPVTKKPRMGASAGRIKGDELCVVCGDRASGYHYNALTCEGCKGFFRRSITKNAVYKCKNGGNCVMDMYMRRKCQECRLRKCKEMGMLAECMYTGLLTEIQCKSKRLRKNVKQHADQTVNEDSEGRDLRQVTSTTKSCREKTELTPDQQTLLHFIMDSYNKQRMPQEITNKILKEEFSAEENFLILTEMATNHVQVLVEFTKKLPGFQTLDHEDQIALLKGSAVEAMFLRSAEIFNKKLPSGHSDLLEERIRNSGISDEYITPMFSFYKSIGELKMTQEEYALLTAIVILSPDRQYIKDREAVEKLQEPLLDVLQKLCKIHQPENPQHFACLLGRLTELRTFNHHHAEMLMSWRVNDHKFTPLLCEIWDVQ
UniProt P43354, whole entry, looked up: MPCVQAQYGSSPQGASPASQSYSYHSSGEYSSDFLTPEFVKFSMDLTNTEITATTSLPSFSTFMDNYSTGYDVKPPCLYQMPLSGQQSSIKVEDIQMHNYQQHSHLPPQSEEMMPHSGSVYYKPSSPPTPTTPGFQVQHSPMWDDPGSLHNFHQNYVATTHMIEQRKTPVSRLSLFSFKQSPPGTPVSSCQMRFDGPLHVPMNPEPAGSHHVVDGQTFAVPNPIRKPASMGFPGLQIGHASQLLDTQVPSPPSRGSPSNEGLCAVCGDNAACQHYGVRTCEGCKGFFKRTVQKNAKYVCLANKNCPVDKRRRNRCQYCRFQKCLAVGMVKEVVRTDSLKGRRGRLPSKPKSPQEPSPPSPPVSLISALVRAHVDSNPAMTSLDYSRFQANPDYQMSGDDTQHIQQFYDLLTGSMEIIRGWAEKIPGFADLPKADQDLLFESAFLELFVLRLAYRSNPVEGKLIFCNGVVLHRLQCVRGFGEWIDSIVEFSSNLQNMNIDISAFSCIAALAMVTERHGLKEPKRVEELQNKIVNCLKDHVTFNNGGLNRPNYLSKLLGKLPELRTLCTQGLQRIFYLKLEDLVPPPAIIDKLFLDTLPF

Assays:
[1] = APR_HepG2_CellCycleArrest_24hr: Apredica 24-hour HepG2 Assay for Cell Cycle Arrest (AID 2282905); details: imaging, actives raise or lower the signal;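 further: cell cycle arrest scored as ratio of 2N to 4N nuclear DNA content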
Outline: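 After 24 h exposure at 0.39–200 uM in 0.5% DMSO, fixed cells received Hoechst 33342 staining. Imaging quantified per-nucleus DNA content; gain or loss fitted against DMSO controls.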

[2] = APR_HepG2_NuclearSize_24hr: Apredica 24-hour HepG2 Assay for Nuclear Size (AID 2282907); details: high-content imaging, actives raise or lower the signal
Outline: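 Nuclear size from Hoechst 33342-stained, formaldehyde-fixed HepG2 nuclei imaged by high-content microscopy, after 24 h dosing at ten concentrations from 0.39 to 200 uM in 0.5% DMSO; gain or loss relative to DMSO baseline.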

[3] = APR_HepG2_MicrotubuleCSK_24hr: Apredica 24-hour HepG2 Assay for Microtubule CSK Stabilty (AID 2282909); details: HepG2 microtubule cytoskeleton imaging, actives raise or lower the signal
Outline: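 Fixed HepG2 cells were stained for alpha-tubulin and imaged after 24 hr exposure to ten concentrations spanning 0.39–200 uM in 0.5% DMSO. Signal change was fitted in both directions relative to DMSO; taxol was the positive control.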

[4] = APR_HepG2_CellCycleArrest_72hr: Apredica 72-hour HepG2 Assay for Cell Cycle Arrest (AID 2282914); details: high-content imaging, actives raise or lower the signal
Outline: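 HepG2, 72 hr exposure, 10-point 0.39–200 uM, duplicate, 0.5% DMSO final. Fix 3.7% formaldehyde 30 min RT, Triton X-100 0.5%, Hoechst 33342 2 ug/mL. ArrayScan 20x, six fields/well; DNA content per nucleus; bidirectional fit vs DMSO.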

[5] = APR_HepG2_MicrotubuleCSK_72hr: Apredica 72-hour HepG2 Assay for Microtubule CSK Stabilty (AID 2282919); details: HepG2 microtubule cytoskeleton, high-content imaging, actives raise or lower the signal
Outline: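 High-content imaging of alpha-tubulin staining in fixed HepG2 cells after 72 hr treatment with ten concentrations from 0.39 to 200 uM (0.5% DMSO). Fitting was bidirectional against DMSO; taxol served as positive control.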

[6] = APR_HepG2_NuclearSize_72hr: Apredica 72-hour HepG2 Assay for Nuclear Size (AID 2282925); details: high-content imaging, actives raise or lower the signal
Outline: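 Nuclear size was read by high-content imaging of Hoechst 33342 stain after formaldehyde fixation. Compounds ran 72 h on HepG2 at 0.39 to 200 uM, with final DMSO 0.5% v/v. Curves fitted both directions relative to DMSO control.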

[7] = target: Nuclear respiratory factor 1 (Homo sapiens) (UniProt Q16656); experiment: ATG_NRF1_CIS: Attagene CIS-FACTORIAL HepG2 Assay for human Nuclear Respiratory Factor 1 (NRF1) Orphan Gene (AID 2282987); details: HepG2 NRF1 cis-element reporter, Attagene multiplex; actives raise or lower the signal
Outline: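 Endogenous NRF1-driven reporter transcription measured in transiently transfected human HepG2 liver cells. Readout: reporter mRNA by RT-PCR and capillary electrophoresis with fluorescence detection, 24 h post-dosing. Gain or loss of signal fitted relative to DMSO baseline.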

[8] = ATG_NFI_CIS: Attagene CIS-FACTORIAL HepG2 Assay for human Nuclear Factor I (NFI) (AID 2282989); details: HepG2 cis-regulatory reporter, NFI response element transcription; actives raise or lower the signal
Outline: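 Cells: human liver HepG2, transiently transfected with promoter-regulated reporter transcription units. Exposure 24 h. Detection: fluorescent RT-PCR products separated by capillary electrophoresis, normalised to DMSO negative control.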

[9] = ATG_NRF2_ARE_CIS: Attagene CIS-FACTORIAL HepG2 Assay for human Nuclear Factor Erythroid 2 Related Factor 2 (NFR2) response to Antioxidant Response Elements (ARE) (AID 2282992); details: HepG2 Attagene ARE/NRF2 reporter, transcription factor activity; actives raise or lower the signal
Outline: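 Endogenous transcription factor activity read out as reporter transcript levels (RT-PCR plus capillary electrophoresis, fluorescence) in transiently transfected HepG2 cells. Measured at 24 h after dosing; gain or loss of signal fitted versus DMSO.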

[10] = target: guinea pig Sigma Receptor, Non-selective Binding, SIGMAR1 (gene 100135589) (UniProt Q60492); experiment: NVS_OR_gSIGMA_NonSelective: NovaScreen (NVS) Nuclear Receptor Binding Assay for guinea pig Sigma Receptor, Non-selective Binding (AID 2283367; active means hit-call score of the fitted dose curve at least 0.9, where 1 is the maximum)
[11] = read-out: Cytochrome P450 (CYP1A1), CYP1A1 (gene 1543); experiment: LTEA_HepaRG_CYP1A1: Life Technologies and Expression Analysis (LTEA) Assay for Cytochrome P450 (CYP1A1) using HepaRG (AID 2283454); details: actives raise or lower the signal; mRNA level, 48 h
Outline: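 qRT-PCR read-out: CYP1A1 transcript normalized to three housekeeping genes, fitted bidirectionally against 0.5% DMSO vehicle baseline. Human HepaRG cells, 48 h chemical exposure, 8-point half-log series topping at 100 uM.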

[12] = read-out: Cytochrome P450 (CYP24A1), CYP24A1 (gene 1591); experiment: LTEA_HepaRG_CYP24A1: Life Technologies and Expression Analysis (LTEA) Assay for Cytochrome P450 (CYP24A1) using HepaRG (AID 2283478); details: actives raise or lower the signal; mRNA level, 48 h
Outline: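 qRT-PCR read-out: CYP24A1 transcript levels normalized to three housekeeping genes, bidirectional curve fits against 0.5% DMSO baseline. Human HepaRG cells treated 48 h with chemicals at eight concentrations from 100 uM in half-log steps.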

[13] = read-out: Cytochrome P450 (CYP2B6), CYP2B6 (gene 1555); experiment: LTEA_HepaRG_CYP2B6: Life Technologies and Expression Analysis (LTEA) Assay for Cytochrome P450 (CYP2B6) using HepaRG (AID 2283481); details: actives raise or lower the signal; mRNA level, 48 h
Outline: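 Read-out is CYP2B6 mRNA by TaqMan qRT-PCR, normalized to three housekeeping genes and fitted bidirectionally against 0.5% DMSO baseline. Human HepaRG cells received test chemicals for 48 h, top concentration 100 uM, half-log dilutions.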

CYP2C8 (gene 1558) = experiment: LTEA_HepaRG_CYP2C8: Life Technologies and Expression Analysis (LTEA) Assay for CYP2C8 using HepaRG (AID 2283483); details: actives raise or lower the signal; mRNA level, 48 h
Outline: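 CYP2C8 expression measured by TaqMan qRT-PCR and normalized to three housekeeping genes. HepaRG cultures were treated for 48 h with an eight-point half-log series topping at 100 uM, vehicle 0.5% DMSO, duplicates; fitted both directions against DMSO.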

CYP2E1 (gene 1571) = experiment: LTEA_HepaRG_CYP2E1: Life Technologies and Expression Analysis (LTEA) Assay for CYP2E1 using HepaRG (AID 2283485); details: actives raise or lower the signal; mRNA level, 48 h
Outline: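 CYP2E1 transcript measured by Fluidigm qRT-PCR against three housekeeping genes in human HepaRG cells treated 48 h (top 100 uM, half-log steps, 0.5% DMSO vehicle). Gain or loss fitted relative to DMSO baseline.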

CYP4A11 (gene 1579) = experiment: LTEA_HepaRG_CYP4A11: Life Technologies and Expression Analysis (LTEA) Assay for CYP4A11 using HepaRG (AID 2283486); details: actives raise or lower the signal; mRNA level, 48 h
Outline: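 CYP4A11 transcript levels were quantified by TaqMan qRT-PCR after HepaRG human liver cells were treated for 48 hours with test chemicals (top 100 uM, half-log dilutions, 0.5% DMSO). Gain or loss of signal was fitted relative to DMSO.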

[14] = read-out: Cytochrome P450 4A22 (Homo sapiens) (UniProt Q5TCH4); experiment: LTEA_HepaRG_CYP4A22: Life Technologies and Expression Analysis (LTEA) Assay for Cytochrome P450 4A22 (CYP4A22) using HepaRG (AID 2283495); details: actives raise or lower the signal; mRNA level, 48 h
Outline: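 HepaRG, 48 h post-plating -> serum-free induction medium; dosed 48 h, duplicate, 8 conc. (100 uM top, half-log), 0.5% DMSO. Readout: CYP4A22 mRNA by qRT-PCR, ACTB/GAPDH/POLR2A normalization; gain/loss fit relative to DMSO.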

[15] = read-out: Cytochrome P450 7A1 (Homo sapiens) (UniProt P22680); experiment: LTEA_HepaRG_CYP7A1: Life Technologies and Expression Analysis (LTEA) Assay for Cytochrome P450 7A1 (CYP7A1) using HepaRG (AID 2283496); details: actives raise or lower the signal; mRNA level, 48 h
Outline: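 HepaRG, 48 h exposure, 8-pt half-log series from 100 uM, 0.5% DMSO vehicle, duplicates. Readout: TaqMan qRT-PCR mRNA vs three housekeeping genes; bidirectional curve fit against DMSO baseline.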

[16] = read-out: Nuclear factor erythroid 2-related factor 2 (Homo sapiens) (UniProt Q16236); experiment: LTEA_HepaRG_NFE2L2: Life Technologies and Expression Analysis (LTEA) Assay for Nuclear factor erythroid 2-related factor 2 (NFE2L2) Transcription Factor using HepaRG (AID 2283527); details: actives raise or lower the signal; mRNA level, 48 h;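 further: TaqMan qRT-PCR transcript level normalised to ACTB GAPDH and POLR2A housekeeping genes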
Outline: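 NFE2L2 transcript level was read by qRT-PCR (housekeeping ACTB/GAPDH/POLR2A normalisation) after 48 h chemical treatment of HepaRG in serum-free induction medium. Duplicate 8-point half-log curves, top 100 uM, 0.5% DMSO vehicle; up- or down-regulation fitted against vehicle.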

[17] = STM_H9_OrnithineISnorm_perc: Stemina devTOX quickPredict H9 human embryonic stem cell (hESC)-based Assay for Ornithine (ORN) Metabolite Biomarker, Normalized (AID 2283712);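 further: ornithine released into spent medium during last day measured by mass spectrometry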
Outline: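 Ornithine in spent medium from the last 24 h of a 72 h exposure, deproteinised and quantified by UPLC-HRMS against an isotope-labelled internal standard, expressed relative to 0.1% DMSO. Pluripotent H9 cells; compound refreshed every 24 h.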

[18] = CCTE_Shafer_MEA_acute_cross_correlation_HWHM: CCTE's Neural Acute Assay for Cross Correlation at Half Width at Half Maximum, Shafer Lab (AID 2284026);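 further: percent change per well from pre-dose baseline in spike cross-correlogram half width; hits are a decrease in cross-correlogram half width relative to DMSO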
Outline: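 Read-out: half width at half maximum of action-potential cross-correlogram, percent change versus pre-treatment baseline, fitted in loss direction against DMSO. Rat cortical cultures, DIV 13 or 15, dosed 0.03-40 uM, 40-min recordings at 37 C.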

[19] = target: bovine Estrogen Receptor (ER), ESR1 (gene 407238) (UniProt P49884); experiment: NVS_NR_bER: NovaScreen (NVS) Nuclear Receptor Binding Assay for bovine Estrogen Receptor (ER) (AID 2283345; active means hit-call score of the fitted dose curve at least 0.9, where 1 is the maximum;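 further: actives lower the bound radioligand count which means they displace the ER ligand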)
Outline: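 Displacement of a radioligand from estrogen receptor in bovine uterine membrane preparations; scintillation signal taken at 18 hours, DMSO as baseline. Single-concentration duplicates (25 uM) preceded concentration-response follow-up of actives.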

[20] = target: Estrogen receptor (Homo sapiens) (UniProt P03372); experiment: NVS_NR_hER: NovaScreen (NVS) Nuclear Receptor Binding Assay for human Estrogen Receptor (ER) (AID 2283348; active means hit-call score of the fitted dose curve at least 0.9, where 1 is the maximum)
Outline: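 Cell-free MCF7-derived ER preparation, specific radioligand displaced by test compound, read by scintillation counting 18 h post-dosing. Duplicate single-point 25 uM screen, then concentration-response confirmation; DMSO baseline.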

[21] = target: Bile acid receptor (Homo sapiens) (UniProt Q96RI1); experiment: ATG_IR1_CIS: Attagene CIS-FACTORIAL HepG2 Assay for human Nuclear Receptor Subfamily 1 Group H Member 4 (NR1H4), IR1 submotif (AID 2282946); details: IR1 reporter transcription, actives raise or lower the signal
Outline: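 HepG2 cells transiently transfected with multiplexed cis-element reporter units read endogenous transcription factor activity. After 24 h compound exposure, reporter mRNA was quantified by RT-PCR, fluorescent labelling, HpaI digestion and capillary electrophoresis; bidirectional fitting versus DMSO baseline.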

[22] = target: Nuclear receptor subfamily 4 group A member 2 (Homo sapiens) (UniProt P43354); experiment: ATG_NURR1_TRANS: Attagene TRANS-FACTORIAL HepG2 Assay for human Nuclear Receptor Related Protein 1 (NURR1) (AID 2282985; active means hit-call score of the fitted dose curve at least 0.9, where 1 is the maximum); details: HepG2 Attagene TRANS reporter, mRNA readout
Outline: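 Reporter transcript induction, measured by RT-PCR with fluorescent labelling, HpaI digestion and capillary electrophoresis, after 24 hr dosing of human HepG2 cells transiently expressing an exogenous NR-Gal4 fusion with GAL4-UAS-driven reporters; DMSO as baseline.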

Measured: AC50

CN(C)CCOC(c1ccccc1)c1ccccc1
active: [1] 73.9 µM | [6] 108 µM | [10] 5.03 µM | [11] 86.7 µM | [13] 4.9 µM | CYP2E1 (gene 1571) 20.2 µM | [17] 16 µM | [18] 9.64 µM
not listed: [19] | [20] | [21] | [22]
inactive: all other assays above

CN1[C@@H]2CC(OC(=O)[C@H](CO)c3ccccc3)C[C@H]1[C@@H]1O[C@@H]12 (stereo partly specified)
inactive: [7] | [8] | [9] | [19] | [20]

O=C(O)COCCN1CCN(C(c2ccccc2)c2ccc(Cl)cc2)CC1 (stereo unspecified)
inactive: [21] | [22] | [7] | [8] | [9]
